Data from publication PMC5412259.
No constants are given. Whether binding was seen depends on the method and setting. In cells and extracts the contact can be indirect. Some binding calls cover weakened binding; strength is not graded here.

B1: high mobility group box-1 protein (HMGB1), P63159 1-215 (protein)
chain: MGKGDPKKPRGKMSSYAFFVQTCREEHKKKHPDASVNFSEFSKKCSERWKTMSAKEKGKFEDMAKADKARYEREMKTYIPPKGETKKKFKDPNAPKRPPSAFFLFCSEYRPKIKGEHPGLSIGDVAKKLGEMWNNTAADDKQPYEKKAAKLKEKYEKDIAAYRAKGKPDAAKKGVVKAEKSKKKKEEEDDEEDEEDEEEEEEEEDEDEEEDDDDE

Legend:
[1] = target: T1, toll-like receptor 4 (TLR4) (rat (endogenous in NR8383)) (UniProt Q9QX05); experiment: co-IP; NR8383 cells stimulated by LPS or HMGB1, with or without increasing concentrations of glycyrrhizin (GL) for 12 h; lysed in 1x RIPA buffer; lysates incubated overnight at 4°C with 5 μg/ml anti-RAGE or anti-TLR4 monoclonal antibody on protein A agarose beads; western blotting
T1 sequence: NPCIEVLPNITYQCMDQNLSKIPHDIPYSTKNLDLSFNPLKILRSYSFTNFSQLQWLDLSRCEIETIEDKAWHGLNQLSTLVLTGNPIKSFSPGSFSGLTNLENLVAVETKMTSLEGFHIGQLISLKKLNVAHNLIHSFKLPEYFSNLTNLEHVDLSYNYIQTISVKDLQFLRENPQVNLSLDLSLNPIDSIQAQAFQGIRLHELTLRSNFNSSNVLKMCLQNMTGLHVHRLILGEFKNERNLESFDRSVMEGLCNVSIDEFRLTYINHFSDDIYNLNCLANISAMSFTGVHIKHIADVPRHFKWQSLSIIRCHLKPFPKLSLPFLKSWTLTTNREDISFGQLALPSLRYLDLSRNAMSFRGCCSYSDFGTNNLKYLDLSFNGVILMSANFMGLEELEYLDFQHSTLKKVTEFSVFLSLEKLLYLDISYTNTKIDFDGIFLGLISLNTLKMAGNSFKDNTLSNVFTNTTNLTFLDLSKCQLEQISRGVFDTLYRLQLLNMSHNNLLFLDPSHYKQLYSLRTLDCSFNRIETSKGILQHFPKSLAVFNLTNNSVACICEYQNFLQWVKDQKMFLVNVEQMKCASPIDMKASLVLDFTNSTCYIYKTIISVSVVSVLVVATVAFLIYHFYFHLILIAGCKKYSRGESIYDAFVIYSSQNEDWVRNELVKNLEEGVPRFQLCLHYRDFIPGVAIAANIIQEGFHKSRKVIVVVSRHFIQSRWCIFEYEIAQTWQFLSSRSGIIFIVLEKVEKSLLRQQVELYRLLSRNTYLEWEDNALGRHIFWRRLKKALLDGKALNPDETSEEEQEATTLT

[2] = target: T2, receptor for advanced glycation end products (RAGE) (rat (endogenous in NR8383)), Q63495; experiment: as above; conditions: remark: other sources report otherwise
T2 chain: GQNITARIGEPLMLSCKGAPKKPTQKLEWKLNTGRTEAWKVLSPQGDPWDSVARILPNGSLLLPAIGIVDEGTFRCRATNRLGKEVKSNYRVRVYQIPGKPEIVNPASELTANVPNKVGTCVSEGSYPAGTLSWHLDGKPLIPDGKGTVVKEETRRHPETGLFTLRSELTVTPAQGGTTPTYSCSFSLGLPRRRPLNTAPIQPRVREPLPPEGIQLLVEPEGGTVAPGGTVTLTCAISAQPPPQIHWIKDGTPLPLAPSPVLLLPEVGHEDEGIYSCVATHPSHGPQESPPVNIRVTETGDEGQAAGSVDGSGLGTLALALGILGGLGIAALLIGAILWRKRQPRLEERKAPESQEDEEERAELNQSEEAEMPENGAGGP

Molecule | binding [1] | binding [2]
high mobility group box-1 protein (HMGB1) (from UniProt P63159 1-215) | binds | 
B1 |  | binds
